Data on 4 molecules can be found in patent publication US20130273053A1.

The chains behind the UniProt entries cited, without tags or fusion partners. Where a name states a change or a piece, a line headed by the entry shows the natural chain unless it says otherwise.
UniProt P48740: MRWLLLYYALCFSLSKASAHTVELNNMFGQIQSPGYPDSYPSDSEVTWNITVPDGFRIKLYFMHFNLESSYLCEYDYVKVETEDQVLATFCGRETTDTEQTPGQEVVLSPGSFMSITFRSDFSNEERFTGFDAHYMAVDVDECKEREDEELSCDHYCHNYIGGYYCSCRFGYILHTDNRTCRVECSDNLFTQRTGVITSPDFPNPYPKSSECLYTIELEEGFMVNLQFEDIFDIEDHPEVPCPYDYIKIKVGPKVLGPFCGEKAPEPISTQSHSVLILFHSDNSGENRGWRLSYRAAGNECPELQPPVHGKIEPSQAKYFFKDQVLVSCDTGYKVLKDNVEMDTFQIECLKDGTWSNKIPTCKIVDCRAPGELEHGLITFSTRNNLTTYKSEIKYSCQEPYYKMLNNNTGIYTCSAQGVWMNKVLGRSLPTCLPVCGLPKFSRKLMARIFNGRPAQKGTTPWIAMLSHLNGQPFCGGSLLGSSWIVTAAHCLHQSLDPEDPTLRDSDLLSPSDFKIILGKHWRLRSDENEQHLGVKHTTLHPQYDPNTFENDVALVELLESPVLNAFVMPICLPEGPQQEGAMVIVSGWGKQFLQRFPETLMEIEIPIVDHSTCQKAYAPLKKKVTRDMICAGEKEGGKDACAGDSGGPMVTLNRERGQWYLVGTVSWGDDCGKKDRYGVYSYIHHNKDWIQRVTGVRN

Experiment [1] addresses human MASP-3 (human). The experiment can be described thus: DTLacO screens.
The target of experiment [2] is human MASP-3 (human). The experiment can be described thus: FACS, DTLacO cells stained with MASP-3 antigen. In general terms: Flow cytometry measures light scatter and fluorescence of single cells or particles in a stream.
The target in experiment [3] is human MASP-3 (human). The experiment can be described thus: flow cytometry (FACS) of DTLacO cells displaying clone M3M1, stained with MASP-3 antigen; filled curve is the IgG1-stained negative control.
The target of experiment [4] is human MASP-1 (human) (UniProt P48740). The experiment can be described thus: DTLacO screens.
The target in experiment [5] is human MASP-3 (human). Put plainly: flow cytometry (FACS) of DTLacO cells displaying clone M3J5, stained with MASP-3 antigen; filled curve is the IgG1-stained negative control.
Experiment [6] concerns the target human MASP-3 (human). Put plainly: saturation binding by flow cytometry: DTLacO cells expressing the antibody, stained with increasing concentrations of fluorescent-labelled soluble MASP-3 antigen.

These are yes or no findings as the source states them, for the method shown. Some binding calls cover weakened binding; strength is not graded here.

B1: MASP-3 specific clone M3M1 (antibody, V domains shown)
VH: AVTLDESGGGLQTPGGGLSLVCKASGFDFSSYQMNWIRQAPGKGLEFVAAINRFGNSTGHGAAVKGRVTISRDDGQSTVRLQLSNLRAEDTATYYCAKGVYGYCGSYSCCGVDTIDAWGHGTEVIVSS
VL: ALTQPASVSANPGETVKITCSGGGSYAGSYYYGWYQQKAPGSAPVTLIYYNNKRPSDIPSRFSGSLSGSTNTLTITGVRADDEAVYFCGSADNSGAAFGAGTTLTVL
Turning to B1, the binding entry in experiment [1], in experiment [2] and in experiment [3] was “binds” in each case.

B2: clone 1E10 (MASP-1/MASP-3 dual binding clone) (antibody, human IgG1, V domains shown)
VH: AVTLDESGGGLQTPGGALSLVCKASGFTFSSYDMVWVRQAPGKGLEFVAGISRNDGRYTEYGSAVKGRATISRDNGQSTVRLQLNNLRAEDTATYYCARDAGGSAYWFDAGQIDAWGHGTEVIVSS
VL: ALTQPASVSANPGETVKITCSGGGSYAGSYYYGWYQQKAPGSAPVTLIYYNNKRPSDIPSRFSGSLSGSTNTLTITGVRADDEAVYFCGSADNSGAAFGAGTTLTVL
As for B2, the binding entry in experiment [4] and in experiment [1] was “binds” throughout.

B3: clone D14 (MASP-1/MASP-3 dual binding clone) (antibody, human IgG1, V domains shown)
VH: AVTLDESGGGLQTPGGALSLVCKASGFTFSSYAMHWVRQAPGKGLEWVAGIYKSGAGTNYAPAVKGRATISRDNGQSTVRLQLNNLRAEDTGTYYCAKTTGSGCSSGYRAEYIDAWGHGTEVIVSS
VL: ALTQPASVSANPGETVKITCSGGGSYAGSYYYGWYQQKAPGSAPVTLIYYNNKRPSDIPSRFSGSLSGSTNTLTITGVRADDEAVYFCGSADNSGAAFGAGTTLTVL
Take B3: the binding entry in experiment [4] and in experiment [1] was “binds” each time.

B4: MASP-3 specific clone M3J5 (antibody, IgM, V domains shown)
VH: AVTLDESGGGLQTPGGGLSLVCKASGFTFSSYAMGWMRQAPGKGLEYVAGIRSDGSFTLYATAVKGRATISRDNGQSTVRLQLNNLRAEDTATYFCTRSGNVGDIDAWGHGTEVIVSS
VL: ALTQPASVSANPGETVKITCSGGYSGYAGSYYYGWYQQKAPGSAPVTLIYYNNKRPSDIPSRFSGSLSGSTNTLTITGVRADDEAVYFCGSADNSGAAFGAGTTLTVL
B4: the binding result in experiment [1], in experiment [2], in experiment [5] and in experiment [6] was “binds” in each case.
